# The list shows a part of the results. These are further read-outs of the screen, such as a control signal, another cell line or another target. No call is given for them. Compounds called inactive in the main read-out are mostly missing here. Potencies come from curve fits of mixed quality, noted in brackets.
# Experiment: qHTS Assay to Find Inhibitors of Chronic Active B-Cell Receptor Signaling
# Conditions: ABC-DLBCL IkBa-CBG/CBR reporter, luminescence ratio (green luciferase fused to IkBa over red control in TMD8 lymphoma cells), 4 h
# Procedure, shortened: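 TMD8 ABC-DLBCL cells carrying doxycycline-inducible green luciferase fused to IkappaBalpha plus unfused red luciferase were exposed to compounds (up to 46 uM) for 4 hrs at 37C. Activity came from the overlap-corrected green/red luminescence ratio.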
# [1] = measured here: CBR red luminescence, cell number
# [2] = measured here: IkBa-CBG green luminescence
Compound,AC50 [1],AC50 [2]
CC(=O)c1ccc(NC(=O)c2ccc(C)c(Br)c2)cc1,"3.98 µM [falling, full curve, poor fit]",
O=C(/C=C/c1ccc2c(c1)OCO2)NCCSCc1cccc(Cl)c1,"10 µM [falling, partial curve, poor fit]",
Cc1nc(-c2cccc(Cl)c2)n[nH]1,"2.82 µM [rising, full curve, poor fit]",
CCOC(=O)c1cnc(Nc2nc3ccccc3o2)nc1CSC(=S)N1CCCCC1,,"1.84 µM [falling, partial curve, poor fit]"
CC(C)c1c(C(=O)N/N=C/c2cccc(OCc3ccc(F)cc3)c2)nnn1-c1nonc1N,"0.1 µM [rising, full curve, poor fit]",
Cc1ccc(C(=O)NNC(=O)c2nn(-c3ccc(F)cc3)ccc2=O)cc1,"12.6 µM [rising, partial curve, poor fit]",
OCC1(CC2CCCCO2)CCN(Cc2cccc(O)c2)CC1 (stereo not drawn),"22.4 µM [rising, single point]",
Cc1ccc(C(=O)NNC(=O)c2ccc(-n3cncn3)c([N+](=O)[O-])c2)cc1,"20.6 µM [falling, single point]",
CCOC(=O)C1=C(N)Oc2cc(O)ccc2C1c1cccnc1 (stereo not drawn),"22.4 µM [falling, single point]",
COCCNC(=O)c1ccc2c(c1)nc(C)n2-c1cccc(F)c1,"0.631 µM [rising, partial curve, poor fit]",
CC(NC(=O)CN(c1cccc(C(F)(F)F)c1)S(=O)(=O)c1ccc(Cl)c([N+](=O)[O-])c1)c1ccccc1 (stereo not drawn),"23.1 µM [falling, single point]","20.6 µM [rising, partial curve, poor fit]"
CCCCCCCCCCOC(=O)C[N+](C)(C)C/C=C(/C)Cl,"20.6 µM [falling, single point]",
Cn1c(=O)n(CCc2ccccc2)c(=O)c2c1nc1n2CCCN1c1ccccc1,"0.82 µM [falling, partial curve, poor fit]",
Fc1cccc(Nc2ncnc3[nH]ncc23)c1,"12.6 µM [falling, single point]",
CC1CCN(C(=O)c2cc3nc(C4CC4)cc(C(F)(F)F)n3n2)CC1,"29.1 µM [rising, single point]",
C=CCn1c(SCC(=O)Nc2sc(C)c(C)c2C(=O)OCC)nnc1-c1sc(N)nc1C,"2.59 µM [falling, partial curve, poor fit]",
Cc1cc(=O)n2[nH]c(-c3cccc(Cl)c3)cc2n1,"35.5 µM [falling, single point]",
O=C(CSc1nc2nccnc2c(=O)n1Cc1cccs1)Nc1ccccc1,"10 µM [falling, partial curve]",
Cc1cc(C)n(-c2ccc(C(=O)OCC(=O)Nc3ccc(Cl)cc3[N+](=O)[O-])cc2)n1,"20.6 µM [rising, partial curve, poor fit]",
Cc1ccc(S(=O)(=O)N(C)C[C@@H]2Oc3ccc(NC(=O)CCC(F)(F)F)cc3CC(=O)N([C@@H](C)CO)C[C@@H]2C)cc1,"20.6 µM [rising, partial curve]","23.1 µM [falling, partial curve]"
CN(CC(=O)Nc1ccc(Cl)cc1)C(=O)CCc1c[nH]c2ccccc12,"11.2 µM [falling, single point]",

Compound,AC50 [1],AC50 [2]
CCC1=NN(C(=O)c2ccc(Cl)cc2)C(O)(c2ccccc2)C1 (stereo not drawn),"17.8 µM [falling, partial curve, poor fit]",
CN1CCN(CCc2nc3cc(NC(=O)c4ccco4)ccc3n2C)CC1,"2.51 µM [falling, full curve, poor fit]",
O=c1c2ccccc2oc2nc(C3CCCCC3)n(Cc3ccco3)c(=O)c12,"10 µM [falling, partial curve, poor fit]",
COc1cc(/C=C2\C(=N)N3N=C(S(C)(=O)=O)SC3=NC2=O)ccc1OCCOc1ccc(C)cc1,"11.2 µM [rising, partial curve, poor fit]",
COc1ccc(C(=O)Nc2ccccc2-c2nnn(CC(=O)N3CCOCC3)n2)cc1,"35.5 µM [rising, single point]",
O=C1c2ccccc2-c2nc3ccccc3cc21,"1 µM [rising, full curve, poor fit]",
O=C(OCc1cccs1)c1ccccc1NS(=O)(=O)c1ccc2c(c1)OCCO2,"0.058 µM [falling, full curve, poor fit]",
NS(=O)(=O)c1ccc(NC(=S)NCc2ccc(Cl)cc2)cc1,"31.6 µM [falling, single point]",
Cc1cccc(NC(=O)C2C3C=CC(C4CC34)C2C(=O)O)c1 (stereo not drawn),"23.1 µM [rising, partial curve, poor fit]",
Cc1cc(C)cc(N(C(=O)c2ccc3c(c2)OCO3)C2C=CS(=O)(=O)C2)c1 (stereo not drawn),"11.2 µM [falling, partial curve]",
CCOC(=O)C1CCN(C(=O)COc2ccc(Br)cc2C)CC1,"8.91 µM [falling, partial curve]",
O=C(OCC(=O)c1cccs1)C1=COCCO1,"6.51 µM [falling, single point]",
CCOC(=O)c1ccc(N=C2NC(=O)CS2)cc1,"29.1 µM [rising, single point]",
COc1cccc2sc3cc(C#CC4(O)CCCCC4)ccc3c(=O)c12,"13 µM [falling, partial curve]",
Cc1cc(C(=O)Cn2ncc(Cl)c(Cl)c2=O)c(C)n1CC(F)(F)F,"11.6 µM [falling, partial curve, poor fit]","20.6 µM [rising, partial curve, poor fit]"
Cc1ccsc1/C=N/NC(=O)c1c[nH]c2ccccc12,"20 µM [falling, single point]",
CC(NC(=O)c1ccc(Cl)s1)C1CCCO1 (stereo not drawn),"14.6 µM [rising, partial curve]",
O=C(/C=C/c1ccco1)NCCc1ccc(F)cc1,"8.91 µM [falling, partial curve, poor fit]",
Oc1ccc(Nc2ncnc3c2oc2ccccc23)cc1,"3.98 µM [falling, partial curve, poor fit]",
O=C(CSc1nnc(Cc2cccs2)n1-c1ccccc1)NC1CCCCC1,"35.5 µM [falling, single point]",
Cc1ccc(-c2nc(CS(=O)CC(=O)NCCC(C)C)c(C)o2)cc1 (stereo not drawn),"8.2 µM [falling, partial curve, poor fit]",

Compound,AC50 [1],AC50 [2]
COc1ccc2c(C)cc(SCc3c(C)noc3C)nc2c1,"4.47 µM [rising, full curve, poor fit]",
O=C(N/N=C1\CC2CC=CC12)c1ccc(O)cc1 (stereo not drawn),"0.316 µM [falling, full curve]",
COc1cc(-c2nc3cnccn3c2Nc2c(C)cccc2C)ccc1O,"14.6 µM [falling, single point]",
Cc1ccccc1Nc1nc(N)nc(COC(=O)[C@@H](NC(=O)c2c(F)cccc2F)C(C)C)n1,"14.6 µM [rising, single point]",
Cc1ccc(NC(=O)CN(C)C(=O)Nc2ccc(C)cc2)cc1,"11.2 µM [rising, partial curve]",
Nc1nc(-c2ccc(Cl)cc2)nnc1-c1ccc(Br)cc1,"3.98 µM [falling, full curve]",
CCC1=Nc2cc(C(=O)NCCCOC)ccc2Sc2ccccc21,"2.91 µM [rising, full curve]","4.11 µM [falling, full curve]"
CCOc1ccc(NC(=O)Nc2cccs2)cc1,"23.1 µM [falling, single point]",
COc1ccc2oc(C(=O)OCC(=O)NCCc3ccccc3)c(C)c2c1,"23.1 µM [rising, partial curve, poor fit]",
N/C(=N\OC(=O)Cc1ccccc1)c1cccc(Br)c1,"15.8 µM [rising, partial curve, poor fit]",
Clc1ccc(CSc2nnc([C@@H]3CCCN3)o2)cc1,"10 µM [rising, partial curve]",
COc1ccc2oc(=N)c(-c3nnc4n3CCCCC4)cc2c1,"20.6 µM [rising, single point]",
Cc1ccc(NC(=O)CSc2nccn2C2CCCC2)cc1,"35.5 µM [rising, single point]",
C/C(=N\NC(=O)C1(C)CC1(Br)Br)c1cccc(NC(=O)c2ccc(C)o2)c1 (stereo not drawn),"17.8 µM [falling, single point]",
COC(=O)C(Nc1ccccc1Cl)(c1cc(C)c(O)c(C)c1)C(F)(F)F (stereo not drawn),"29.1 µM [falling, single point]","20.6 µM [rising, partial curve, poor fit]"
COC(=O)c1ccc(/C=C2\Oc3ccccc3NC2=O)cc1,"0.251 µM [falling, full curve]",
CCOC(=O)/C(=N\NC(=O)c1ccccc1)c1ccccc1,"1.46 µM [falling, partial curve]",
O=C(COc1cccc(F)c1)Nc1nc(-c2cccnc2)cs1,"29.1 µM [rising, partial curve, poor fit]",
O=C(Nc1cccc(O)c1)c1cc(-c2ccco2)on1,"1.46 µM [falling, full curve]",
COC(=O)Cc1ccc(NC(=O)c2ccc(Br)o2)cc1,"4.11 µM [rising, full curve, poor fit]",
COc1ccc(C=O)cc1COc1ccccc1F,"23.1 µM [rising, single point]",

# Entries listed so far that contain a nitro group on carbon:
Compound,AC50 [1],AC50 [2]
Cc1ccc(C(=O)NNC(=O)c2ccc(-n3cncn3)c([N+](=O)[O-])c2)cc1,"20.6 µM [falling, single point]",
CC(NC(=O)CN(c1cccc(C(F)(F)F)c1)S(=O)(=O)c1ccc(Cl)c([N+](=O)[O-])c1)c1ccccc1 (stereo not drawn),"23.1 µM [falling, single point]","20.6 µM [rising, partial curve, poor fit]"
Cc1cc(C)n(-c2ccc(C(=O)OCC(=O)Nc3ccc(Cl)cc3[N+](=O)[O-])cc2)n1,"20.6 µM [rising, partial curve, poor fit]",

# Source: PubChem BioAssay AID493014 (National Center for Advancing Translational Sciences (NCATS), 2011)
